Assay results from PubChem BioAssay AID248 (DTP/NCI, 2004).
The list is a part of this screen's results and no random one: it gathers tests that were run many times, whatever their T/C, doses with no T/C, and many T/C values between a quarter and a half above the control. Other doses and runs of a compound stand elsewhere. T/C is the treated group as % of the vehicle group. Some doses have a count of surviving animals in place of a T/C: the source holds a T/C of zero for them, seemingly a mark for toxic or unscored doses. Some survivor counts are full or nearly so, which does not show that the dose was tolerated: survival well below the control is almost never listed, so the zero probably covers shortened survival too. Survivors were counted at the toxicity check, usually on the fifth day, unless a day is given; later deaths do not show. Schedule codes are those of the source, read here as Q, the interval in days (D) or hours (H), X, the number of doses. Where survival is the endpoint, this PubChem deposit counts one and a half times the control or more as active, and values a quarter to a half above the control carry no call in these data; other NCI protocols may use other cut-offs. Some T/C values are followed by the survivors on the day toxicity was checked, most often the fifth; where none is given, no animal had died by that day. Some entries hold several experiments; the results are listed from low to high.

Test system: L1210 leukemia ip in BDF1 mice, survival T/C
Test: NCI In Vivo Anticancer Drug Screen. Data for tumor model L1210 Leukemia (intraperitoneal) in B6D2F1 (BDF1) mice
Conditions: T/C endpoint: mean survival time, higher T/C = longer survival
[1] = dose: 25.0 mg/kg/injection, schedule: Q04DX003 (ip), vehicle: saline
[2] = dose: 100.0 mg/kg/injection, schedule: Q04DX003 (ip), vehicle: saline with Tween-80
[3] = dose: 200.0 mg/kg/injection, schedule: Q04DX003 (ip), vehicle: saline with Tween-80
[4] = dose: 400.0 mg/kg/injection, schedule: Q04DX003 (ip), vehicle: saline with Tween-80
[5] = dose: 100.0 mg/kg/injection, schedule: Q01DX009 (ip), vehicle: saline with Tween-80
[6] = dose: 100.0 mg/kg/injection, schedule: Q04DX002 (ip), vehicle: saline with Tween-80
[7] = dose: 200.0 mg/kg/injection, schedule: Q01DX009 (ip), vehicle: saline with Tween-80
[8] = dose: 400.0 mg/kg/injection, schedule: Q01DX009 (ip), vehicle: Klucel (hydroxypropylcellulose) (HPC)
[9] = dose: 400.0 mg/kg/injection, schedule: Q01DX009 (ip), vehicle: saline with Tween-80

N=C(N)c1ccc(Oc2ccc(-c3cc4ccc(C(=N)N)cc4[nH]3)cc2)cc1 was tested, and the T/C (dose: 6.25 mg/kg/injection, schedule: Q01DX009 (ip), vehicle: saline with Tween-80) was 125 % of control, the T/C [1] was 137 % of control and the survivor count [1] was 1 of 4. For the same molecule, the survivor count (dose: 50.0 mg/kg/injection, schedule: Q04DX003 (ip), vehicle: saline) was 2 of 6, the survivor count [2] was 0 of 4 and the survivor count [3] was 0 of 4. For the same molecule, the survivor count [4] was 1 of 4.
With CCOC(=O)c1ccc(NC(=O)Nc2ccc(NC(C)=O)cc2)cc1 the survivor count (dose: 25.0 mg/kg/injection, schedule: Q01DX009 (ip), vehicle: saline with Tween-80) was 3 of 3, the survivor count (dose: 25.0 mg/kg/injection, schedule: Q04DX002 (ip), vehicle: saline with Tween-80) was 3 of 3 and the survivor count (dose: 50.0 mg/kg/injection, schedule: Q01DX009 (ip), vehicle: saline with Tween-80) was 3 of 3. The survivor count [5] was 3 of 3, the T/C [6] was 88, 96, 97 % of control [5 of 6 alive] and the survivor count [6] was 3 of 3. For the same molecule, the survivor count [2] was 6 of 6, the survivor count [7] was 3 of 3 and the survivor count (dose: 200.0 mg/kg/injection, schedule: Q04DX002 (ip), vehicle: saline with Tween-80) was 3 of 6. For the same molecule, the survivor count (dose: 400.0 mg/kg/injection, schedule: Q04DX002 (ip), vehicle: saline with Tween-80) was 3 of 6.
In the case of O=C(OCCCCCOC(=O)c1ccccc1O)c1ccccc1O, the survivor count (dose: 400.0 mg/kg/injection, schedule: Q01DX001 (ip), vehicle: other) is reported as 6 of 6.
In the case of CCN=C(N)CSS(=O)(=O)O, the survivor count (dose: 200.0 mg/kg/injection, schedule: Q04DX002 (ip), vehicle: Klucel (hydroxypropylcellulose) (HPC)) is reported as 1 of 3 and the survivor count (dose: 400.0 mg/kg/injection, schedule: Q04DX002 (ip), vehicle: Klucel (hydroxypropylcellulose) (HPC)) is reported as 0 of 3.
For Cc1ccc(O)c(N=O)c1.[Cu+2], the survivor count (dose: 400.0 mg/kg/injection, schedule: Q01DX001 (ip), vehicle: saline) was 0 of 4.
NCCSCCN was tested, and the survivor count [8] was 0 of 6.
COC(=O)/C(Cl)=C(\Cl)C(=O)OC was tested, and the survivor count (dose: 100.0 mg/kg/injection, schedule: Q01DX009 (ip), vehicle: Klucel (hydroxypropylcellulose) (HPC)) was 1 of 6, the survivor count (dose: 200.0 mg/kg/injection, schedule: Q01DX009 (ip), vehicle: Klucel (hydroxypropylcellulose) (HPC)) was 0 of 6 and the survivor count [7] was 3 of 6. The survivor count (dose: 200.0 mg/kg/injection, schedule: Q04DX003 (ip), vehicle: Klucel (hydroxypropylcellulose) (HPC)) was 2 of 6, the survivor count [8] was 0 of 6 and the survivor count [9] was 0 of 6. The survivor count (dose: 400.0 mg/kg/injection, schedule: Q04DX003 (ip), vehicle: Klucel (hydroxypropylcellulose) (HPC)) was 3 of 6 and the survivor count [4] was 3 of 6.
With Nc1nc(N)c(CCCOc2ccc(NC(=O)c3cccc(S(=O)OF)c3)cc2)c(N)n1 (stereo not given) the survivor count (dose: 200.0 mg/kg/injection, schedule: Q01DX015 (ip), vehicle: saline) was 0 of 6, the survivor count (dose: 300.0 mg/kg/injection, schedule: Q01DX015 (ip), vehicle: saline) was 0 of 6 and the survivor count (dose: 500.0 mg/kg/injection, schedule: Q01DX015 (ip), vehicle: saline) was 0 of 6.
With CCCN(CCC)/N=N/c1nc[nH]c1C(N)=O the survivor count [9] was 6 of 6.
With CCOC(=O)c1ccc(N(CC(N)O)S(=O)(=O)c2ccc(C)cc2)cc1 (stereo not given) the survivor count [5] was 0 of 6, the survivor count [7] was 0 of 6 and the survivor count [9] was 0 of 6.
With CC1(C)C(O)(C#N)C(C)(C)C1(O)C#N (stereo not given) the survivor count [2] was 0 of 6, the survivor count [3] was 0 of 6 and the survivor count [4] was 0 of 6.
